Data as given in PubChem BioAssay AID1224830 (NIAID, 2016).

- Assay: 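Host factors that control LPS-induced TNF expression in human macrophages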 (primary screen)
- System: human THP-1 monocytic leukaemia cells, TNF dual-luciferase reporter clone, PMA-differentiated to macrophage-like cells
- Reagent: siRNA pool against human genes, 50 nM
- Time to read-out: LPS for 4 h, given about 3 days after siRNA transfection
- Challenge: bacterial LPS (TLR4 ligand), 10 ng/ml
- Measured: 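TNF firefly reporter luminescence divided by renilla, normalised to the plate median, then turned into a robust z-score for each replicate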
- Direction: TNF reporter robust z-score: higher = stronger TNF reporter response to LPS
- Call rule: 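a well is active when its z-score exceeds 2.8 or falls below -1.5; control wells carry no call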
This is one part, drawn at random, of about 18,000 reagents tested. In the full data, about 2,900 (16%) were called active. 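Calls are made per well; low scores hint the gene aids the LPS response, high scores that it dampens it.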 Repeated entries: four replicate wells of each siRNA pool. No sequences are given here.

| target gene | TNF reporter robust z-score | Call |
| --- | --- | --- |
| CHRNA7 (cholinergic receptor nicotinic alpha 7 subunit) | -1.19 | inactive |
| CHRNA7 (cholinergic receptor nicotinic alpha 7 subunit) | 0.01 | inactive |
| CHRNA7 (cholinergic receptor nicotinic alpha 7 subunit) | 0.22 | inactive |
| CHRNA7 (cholinergic receptor nicotinic alpha 7 subunit) | -0.33 | inactive |
| HAP1 (huntingtin associated protein 1) | 0.86 | inactive |
| HAP1 (huntingtin associated protein 1) | 0.51 | inactive |
| HAP1 (huntingtin associated protein 1) | 0.72 | inactive |
| HAP1 (huntingtin associated protein 1) | 0.41 | inactive |
| ITGA5 (integrin subunit alpha 5) | -0.93 | inactive |
| ITGA5 (integrin subunit alpha 5) | -0.98 | inactive |
| ITGA5 (integrin subunit alpha 5) | -0.92 | inactive |
| ITGA5 (integrin subunit alpha 5) | -0.16 | inactive |
| PYGO2 (pygopus family PHD finger 2) | -0.14 | inactive |
| PYGO2 (pygopus family PHD finger 2) | 0.27 | inactive |
| PYGO2 (pygopus family PHD finger 2) | 0.01 | inactive |
| PYGO2 (pygopus family PHD finger 2) | 0.65 | inactive |
| TULP4 (TUB like protein 4) | 1.34 | inactive |
| TULP4 (TUB like protein 4) | -0.15 | inactive |
| TULP4 (TUB like protein 4) | 3.31 | active |
| TULP4 (TUB like protein 4) | 3.01 | active |
| PTGFRN (prostaglandin F2 receptor inhibitor) | -1.28 | inactive |
| PTGFRN (prostaglandin F2 receptor inhibitor) | 0.1 | inactive |
| PTGFRN (prostaglandin F2 receptor inhibitor) | -0.82 | inactive |
| PTGFRN (prostaglandin F2 receptor inhibitor) | -0.59 | inactive |
| LCN12 (lipocalin 12) | -0.06 | inactive |
| LCN12 (lipocalin 12) | -0.29 | inactive |
| LCN12 (lipocalin 12) | -0.27 | inactive |
| LCN12 (lipocalin 12) | 0.57 | inactive |
| DISP1 (dispatched RND transporter family member 1) | 0.38 | inactive |
| DISP1 (dispatched RND transporter family member 1) | 0.68 | inactive |
| DISP1 (dispatched RND transporter family member 1) | 0.3 | inactive |
| DISP1 (dispatched RND transporter family member 1) | 0.48 | inactive |
| CDC50B (cell division cycle 50 P4-ATPase accessory subunit B) | -0.84 | inactive |
| CDC50B (cell division cycle 50 P4-ATPase accessory subunit B) | -0.27 | inactive |
| CDC50B (cell division cycle 50 P4-ATPase accessory subunit B) | 0.08 | inactive |
| CDC50B (cell division cycle 50 P4-ATPase accessory subunit B) | 0.44 | inactive |
| ATP1B1 (ATPase Na+/K+ transporting subunit beta 1) | 0.37 | inactive |
| ATP1B1 (ATPase Na+/K+ transporting subunit beta 1) | 0.56 | inactive |
| ATP1B1 (ATPase Na+/K+ transporting subunit beta 1) | -0.06 | inactive |
| ATP1B1 (ATPase Na+/K+ transporting subunit beta 1) | 1.39 | inactive |
| RPAIN (RPA interacting protein) | 0.8 | inactive |
| RPAIN (RPA interacting protein) | 1.96 | inactive |
| RPAIN (RPA interacting protein) | 1.39 | inactive |
| RPAIN (RPA interacting protein) | 1.28 | inactive |
| COPG2 (coat protein complex I subunit gamma 2) | 1.59 | inactive |
| COPG2 (coat protein complex I subunit gamma 2) | 1.39 | inactive |
| COPG2 (coat protein complex I subunit gamma 2) | 4.15 | active |
| COPG2 (coat protein complex I subunit gamma 2) | 1.64 | inactive |
| PCDHB1 (protocadherin beta 1) | 0.05 | inactive |
| PCDHB1 (protocadherin beta 1) | 0.87 | inactive |
| PCDHB1 (protocadherin beta 1) | 0.34 | inactive |
| PCDHB1 (protocadherin beta 1) | -0.04 | inactive |
| CASP4 (caspase 4) | 1.2 | inactive |
| CASP4 (caspase 4) | 3.21 | active |
| CASP4 (caspase 4) | 1.1 | inactive |
| CASP4 (caspase 4) | 2.11 | inactive |
| MFSD6 (major facilitator superfamily domain containing 6) | 1.37 | inactive |
| MFSD6 (major facilitator superfamily domain containing 6) | 1.57 | inactive |
| MFSD6 (major facilitator superfamily domain containing 6) | 0.81 | inactive |
| CACNB2 (calcium voltage-gated channel auxiliary subunit beta 2) | 1.3 | inactive |
| CACNB2 (calcium voltage-gated channel auxiliary subunit beta 2) | 0.8 | inactive |
| CACNB2 (calcium voltage-gated channel auxiliary subunit beta 2) | 1.22 | inactive |
| CACNB2 (calcium voltage-gated channel auxiliary subunit beta 2) | 1.41 | inactive |
| TEX13A (testis expressed 13A) | -1.61 | active |
| TEX13A (testis expressed 13A) | -1.19 | inactive |
| TEX13A (testis expressed 13A) | -1.04 | inactive |
| TEX13A (testis expressed 13A) | -1.42 | inactive |
| ZNF214 (zinc finger protein 214) | -0.31 | inactive |
| ZNF214 (zinc finger protein 214) | 0.74 | inactive |
| ZNF214 (zinc finger protein 214) | -0.1 | inactive |
| ZNF214 (zinc finger protein 214) | 0.58 | inactive |
| PPP1R18 (protein phosphatase 1 regulatory subunit 18) | -0.35 | inactive |
| PPP1R18 (protein phosphatase 1 regulatory subunit 18) | 0.59 | inactive |
| PPP1R18 (protein phosphatase 1 regulatory subunit 18) | 0.25 | inactive |
| PPP1R18 (protein phosphatase 1 regulatory subunit 18) | -0.47 | inactive |

6 successive reagents already listed, for reference:
| target gene | TNF reporter robust z-score | Call |
| --- | --- | --- |
| CDC50B (cell division cycle 50 P4-ATPase accessory subunit B) | 0.44 | inactive |
| ATP1B1 (ATPase Na+/K+ transporting subunit beta 1) | 0.37 | inactive |
| ATP1B1 (ATPase Na+/K+ transporting subunit beta 1) | 0.56 | inactive |
| ATP1B1 (ATPase Na+/K+ transporting subunit beta 1) | -0.06 | inactive |
| ATP1B1 (ATPase Na+/K+ transporting subunit beta 1) | 1.39 | inactive |
| RPAIN (RPA interacting protein) | 0.8 | inactive |
